The list does not hold the whole screen: it gathers tests that were run many times, whatever their T/C, doses with no T/C, and many T/C values between a quarter and a half above the control. Other doses and runs of a compound stand elsewhere. T/C gives the treated animals as a percentage of the vehicle group. Some doses have a count of surviving animals in place of a T/C: the source holds a T/C of zero for them, seemingly a mark for toxic or unscored doses. Some doses without a T/C left all or most animals alive at the check, yet need not have been tolerated: survival well below the control is almost never listed, so the zero probably covers shortened survival too. Counts of survivors are from the toxicity check (mostly the fifth day) where no day follows; animals may have died later. Schedule codes are those of the source, read here as Q, the interval in days (D) or hours (H), X, the number of doses. Some entries hold several experiments; the values are given in rising order. For survival time, the PubChem record calls one and a half times the control and up active, and a quarter to a half above the control has no call in these data; cut-offs in other NCI protocols can differ. Some T/C values are followed by the survivors on the day toxicity was checked, most often the fifth; where none is given, no animal had died by that day. Additions like (4×) say how often a value occurs here.
Test system: B6C3F1 mice, Lewis lung carcinoma iv, survival T/C
Experiment: NCI In Vivo Anticancer Drug Screen. Data for tumor model Lewis Lung Carcinoma (intravenous) in B6C3F1 mice
Conditions: T/C endpoint: median survival time, schedule: Q01DX009 (ip), higher T/C = longer survival
How it was run: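 T/C ratio derived from survival of compound-treated versus vehicle-treated mice bearing transplantable tumors.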

[1] = dose: 50.0 mg/kg/injection, vehicle: saline
[2] = dose: 100.0 mg/kg/injection, vehicle: saline
[3] = dose: 200.0 mg/kg/injection, vehicle: saline
[4] = dose: 400.0 mg/kg/injection, vehicle: saline
[5] = dose: 50.0 mg/kg/injection, vehicle: water
[6] = dose: 400.0 mg/kg/injection, vehicle: Klucel (hydroxypropylcellulose) (HPC)
[7] = dose: 100.0 mg/kg/injection, vehicle: saline with Tween-80
[8] = dose: 12.5 mg/kg/injection, vehicle: saline with Tween-80
[9] = dose: 200.0 mg/kg/injection, vehicle: saline with Tween-80
[10] = dose: 400.0 mg/kg/injection, vehicle: saline with Tween-80
[11] = dose: 25.0 mg/kg/injection, vehicle: saline with Tween-80
[12] = dose: 50.0 mg/kg/injection, vehicle: saline with Tween-80
[13] = dose: 2.0 mg/kg/injection, vehicle: saline

With CO[C@H](/C(C)=C/C=C/C(C)=C/c1coc(C)n1)[C@H](C)[C@H]1C[C@@H](O)[C@@]2(C)O[C@H]2/C=C/[C@@H](C)[C@@H]2C[C@@H](CC(=O)O2)C[C@H]2O[C@@H]2C(=O)O1 the survivor count (dose: 160.0 micrograms/kg/injection, vehicle: Klucel (hydroxypropylcellulose) (HPC)) was 10 of 10.

In the case of NC(=O)c1csc(C2OC(CO)C(O)C2O)n1 (stereo not given), the T/C (dose: 25.0 mg/kg/injection, vehicle: saline) is reported as 174, 284, 291, 324 % of control (2×), the T/C [1] is reported as 233, 291, 324, 324 % of control [9 of 10 alive] and the T/C [2] is reported as 291 (2×) and 324 % of control (2×). The T/C [3] was 291 (2×) and 324 % of control (2×), the T/C [4] was 291 (2×) and 324 % of control (2×) and the T/C (dose: 800.0 mg/kg/injection, vehicle: saline) was 97 [8 of 10 alive], 115, 291 % of control (2×). For the same compound, the survivor count (dose: 800.0 mg/kg/injection, vehicle: water) was 10 of 10.

CCOC(OCC)C(=O)OCC(=O)[C@]1(O)Cc2c(O)c3c(c(O)c2[C@@H](OC2CC(N)C(O)C(C)O2)C1)C(=O)c1c(OC)cccc1C3=O (stereo not given in full) was tested, and the T/C (dose: 0.25 mg/kg/injection, vehicle: water) was 128 % of control, the survivor count (dose: 4.0 mg/kg/injection, vehicle: water) was 10 of 10 and the survivor count (dose: 8.0 mg/kg/injection, vehicle: water) was 9 of 10.

For Nc1n[n+](-c2ccccc2)no1, the survivor count [5] was 1 of 10.

In the case of O=c1oc2c(O)c(O)cc3c(=O)oc4c(O)c(O)cc1c4c23, the T/C (dose: 200.0 mg/kg/injection, vehicle: Klucel (hydroxypropylcellulose) (HPC)) is reported as 128 % of control and the survivor count [6] is reported as 10 of 10.

For COc1ccc2ccccc2c1C1NC(=O)c2ccccc2N1 (stereo not given), the T/C (dose: 50.0 mg/kg/injection, vehicle: Klucel (hydroxypropylcellulose) (HPC)) was 128 % of control.

BrC1CC(Br)c2c1c1c(c3c2C(Br)CC3Br)C(Br)CC1Br (stereo not given) was tested, and the T/C [7] was 126 % of control.

For CC(C)NCC(O)COc1ccc(O)c(O)c1 (stereo not given), the survivor count [3] was 0 of 10 and the survivor count [4] was 0 of 10.

For Cc1cc(O)c2c(c1O)C(=O)C13C(=C2O)C(=O)C2C(O)C1C1C(O)C3C(=O)C3=C(O)c4c(O)cc(C)c(O)c4C(=O)C321 (stereo not given), the survivor count (dose: 1.56 mg/kg/injection, vehicle: saline with Tween-80) was 9 of 10, the survivor count (dose: 3.12 mg/kg/injection, vehicle: saline with Tween-80) was 8 of 10 and the survivor count (dose: 6.25 mg/kg/injection, vehicle: saline with Tween-80) was 1 of 10 and 2 of 10. For the same compound, the survivor count [8] was 0 of 10.

O=C(CCCCCCC(=O)ON1C(=O)CCC1=O)ON1C(=O)CCC1=O was tested, and the survivor count [9] was 10 of 10 and the survivor count [10] was 6 of 10.

c1ccc(P(CCNCCP(c2ccccc2)c2ccccc2)c2ccccc2)cc1 was tested, and the survivor count [7] was 6 of 10, the survivor count [9] was 5 of 10 and the survivor count [10] was 2 of 10.

For COc1ccc(C(=O)C(CN(C)C)CN(C)C)cc1, the survivor count [1] was 1 of 10.

CCc1nc(N)nc(N)c1-c1ccc(Cl)c([N+](=O)[O-])c1 was tested, and the survivor count [11] was 10 of 10 and the survivor count [12] was 9 of 10.

For CCCCCn1c(C)cc(/C=C\c2ccc3cc(C)ccc3[n+]2C)c1C, the survivor count (dose: 600.0 micrograms/kg/injection, vehicle: Klucel (hydroxypropylcellulose) (HPC)) was 5 of 10 and the survivor count (dose: 1200.0 micrograms/kg/injection, vehicle: Klucel (hydroxypropylcellulose) (HPC)) was 0 of 10.

For CCOc1cc2c(cc1C(C)c1ccc(OC)cc1)OCO2 (stereo not given), the survivor count (dose: 100.0 mg/kg/injection, vehicle: DMSO) was 0 of 10, the survivor count (dose: 100.0 mg/kg/injection, vehicle: distilled water + Tween-80 + alcohol) was 5 of 6 and the survivor count (dose: 100.0 mg/kg/injection, vehicle: distilled water + alcohol) was 9 of 10. For the same compound, the survivor count (dose: 200.0 mg/kg/injection, vehicle: DMSO) was 0 of 10, the survivor count (dose: 200.0 mg/kg/injection, vehicle: distilled water + alcohol) was 0 of 10 and the survivor count (dose: 400.0 mg/kg/injection, vehicle: DMSO) was 0 of 10. For the same compound, the survivor count (dose: 400.0 mg/kg/injection, vehicle: distilled water + alcohol) was 0 of 10, the survivor count (dose: 800.0 mg/kg/injection, vehicle: DMSO) was 0 of 10 and the survivor count (dose: 800.0 mg/kg/injection, vehicle: distilled water + alcohol) was 0 of 10.

For CN(C)CCN1C(=O)c2cccc3cc(N)cc(c23)C1=O, the T/C (dose: 16.0 mg/kg/injection, vehicle: saline with Tween-80) was 138 % of control and the survivor count (dose: 32.0 mg/kg/injection, vehicle: saline with Tween-80) was 9 of 10.

For COc1cc(C2c3cc4c(cc3[C@@H](OC3OC5CO[C@@H](C)OC5C(O)C3O)[C@H]3COC(=O)C23)OCO4)cc(OC)c1OC (stereo not given in full), the survivor count [3] was 8 of 8.

In the case of CN(C)c1ncnc2c1ncn2C1OC(CO)C(N)C1O (stereo not given), the T/C [1] is reported as 144 % of control, the survivor count [2] is reported as 10 of 10 and the survivor count [3] is reported as 10 of 10.

In the case of COc1cccc2c1C(=O)c1c(O)c3c(c(O)c1C2=O)CC(O)(C(=O)CO)CC3OC1CC(N)C(O)C(C)O1 (stereo not given), the T/C (dose: 12.5 mg/kg/injection, vehicle: saline) is reported as 130 % of control, the survivor count (dose: 30.0 mg/kg/injection, vehicle: water) is reported as 10 of 10 and the T/C (dose: 36.0 mg/kg/injection, vehicle: water) is reported as 128 % of control. For the same compound, the survivor count (dose: 72.0 mg/kg/injection, vehicle: water) was 10 of 10 and the survivor count (dose: 144.0 mg/kg/injection, vehicle: water) was 10 of 10.

With NCCCNCCSP(=O)(O)O the survivor count [10] was 6 of 6.

For COC1CC(C)C(OC)c2cc(O)cc(c2O)NC(=O)/C(C)=C/C=C\C(C)C(OC(N)=O)/C(C)=C\C(C)C1OC (stereo not given), the survivor count (dose: 20.0 mg/kg/injection, vehicle: saline + alcohol) was 7 of 10.

CCCC(=O)O was tested, and the survivor count [4] was 0 of 10.

In the case of CCCCCCCCCCCCCCCCCCCCCC(=O)Nc1ccn(C2OC(CO)C(O)C2O)c(=O)n1 (stereo not given), the T/C [8] is reported as 141 % of control, the survivor count [11] is reported as 10 of 10 and the survivor count [12] is reported as 10 of 10. For the same compound, the survivor count [7] was 9 of 10, the survivor count [9] was 8 of 10 and the survivor count [10] was 1 of 10.

With CC[As](=O)(O)CC the survivor count [4] was 1 of 10.

C/C(=N\NC(=S)N1CCN(c2ccccn2)CC1)c1ccccn1 was tested, and the survivor count [5] was 5 of 10 and the survivor count (dose: 100.0 mg/kg/injection, vehicle: water) was 0 of 10.

In the case of CC(C)=CC(=O)OC1C2C(C)=CC(=O)C(O)C2(C)C2C3(O)OCC24C(CC(=O)OC14)C(C)C3O (stereo not given), the survivor count (dose: 4.0 mg/kg/injection, vehicle: distilled water + Tween-80) is reported as 4 of 10.

CCc1ncnc2cc(OCC3CO3)c(OC)cc12 (stereo not given) was tested, and the T/C [1] was 140 % of control, the survivor count [1] was 6 of 6 and the survivor count [2] was 10 of 10 and 6 of 6.

For COC(=O)C[C@](O)(CCC(C)(C)O)C(=O)O[C@@H]1C(OC)=C[C@]23CCCN2CCc2cc4c(cc2[C@H]13)OCO4, the T/C [13] was 125 % of control [9 of 10 alive], the survivor count [13] was 10 of 10 and the survivor count (dose: 4.0 mg/kg/injection, vehicle: saline) was 0 of 10 and 9 of 10.

O=[N+]([O-])c1c(O)c(CNCCCO)cc(CNCCCO)c1O was tested, and the survivor count [1] was 10 of 10, the survivor count [2] was 0 of 10 and the survivor count [3] was 0 of 10.

In the case of S=C(Nc1ccc(Cl)c(Cl)c1)N1c2ccccc2-n2cccc2C1c1cccnc1 (stereo not given), the survivor count [6] is reported as 1 of 10.
